The values that follow come from paper PMC7850899, “Nutrient transceptors physically interact with the yeast S6/protein kinase B homolog, Sch9, a TOR kinase target” (Biochemical Journal, 2021).

Assay [1] deals with T1, Gap1 peptide 222-236 with S234 replaced by C (substitution scan) (S. cerevisiae) (UniProt P19145).
T1 sequence (peptide): GVKGYGEAEFVFCFI
The assay is described as follows: peptide or protein array; PEPperCHIP substitution scan of …, 300 peptides in triplicate; 100 or 500 µg/ml GST-Sch9 or GST, 16 h at 4°C; detected with anti-GST DyLight680; both purified.

Assay [2] concerns the target T2, Gap1 peptide 222-236 with S234 replaced by I (substitution scan) (S. cerevisiae) (UniProt P19145).
T2 sequence (peptide): GVKGYGEAEFVFIFI
The assay is described as above.

Assay [3] has as its target T3, Gap1 peptide 222-236 with F231 replaced by D (substitution scan) (S. cerevisiae) (UniProt P19145).
T3 sequence (peptide): GVKGYGEAEDVFSFI
Described as above.

Assay [4] concerns the target T4, Gap1 peptide 222-236 with V232 replaced by F (substitution scan) (S. cerevisiae) (UniProt P19145).
T4 sequence (peptide): GVKGYGEAEFFFSFI
The assay is described as above.

The target in assay [5] is T5, Gap1 peptide 222-236 with S234 replaced by F (substitution scan) (S. cerevisiae) (UniProt P19145).
T5 sequence (peptide): GVKGYGEAEFVFFFI
Described as above.

The target in assay [6] is T6, Gap1 peptide 222-236 with V232 replaced by K (substitution scan) (S. cerevisiae) (UniProt P19145).
T6 sequence (peptide): GVKGYGEAEFKFSFI
The description is as above.

The target of assay [7] is T7, Gap1 peptide 222-…-236 (S. cerevisiae).
T7 sequence (peptide): GVKGYGEAEFVFSFI
Described as above.

The target in assay [8] is T8, Gap1 peptide 222-236 with S234 replaced by L (substitution scan) (S. cerevisiae) (UniProt P19145).
T8 sequence (peptide): GVKGYGEAEFVFLFI
The description is as above.

The target in assay [9] is T9, Gap1 peptide 222-236 with F233 replaced by D (substitution scan) (S. cerevisiae) (UniProt P19145).
T9 sequence (peptide): GVKGYGEAEFVDSFI
The assay is described as above.

The target in assay [10] is T7, Gap1 peptide 222-…-236 (S. cerevisiae). The assay is described as follows: peptide or protein array; PEPperCHIP Gap1 peptide microarray, 602 peptides of 15 residues with 14 overlap, in duplicate; 50 or 100 µg/ml GST-Sch9 or GST, 16 h at 4°C; detected with anti-GST DyLight680; both purified.
The target in assay [11] is T10, GST-tagged Sch9 (GST-Sch9) (S. cerevisiae) (UniProt P11792).
T10 sequence: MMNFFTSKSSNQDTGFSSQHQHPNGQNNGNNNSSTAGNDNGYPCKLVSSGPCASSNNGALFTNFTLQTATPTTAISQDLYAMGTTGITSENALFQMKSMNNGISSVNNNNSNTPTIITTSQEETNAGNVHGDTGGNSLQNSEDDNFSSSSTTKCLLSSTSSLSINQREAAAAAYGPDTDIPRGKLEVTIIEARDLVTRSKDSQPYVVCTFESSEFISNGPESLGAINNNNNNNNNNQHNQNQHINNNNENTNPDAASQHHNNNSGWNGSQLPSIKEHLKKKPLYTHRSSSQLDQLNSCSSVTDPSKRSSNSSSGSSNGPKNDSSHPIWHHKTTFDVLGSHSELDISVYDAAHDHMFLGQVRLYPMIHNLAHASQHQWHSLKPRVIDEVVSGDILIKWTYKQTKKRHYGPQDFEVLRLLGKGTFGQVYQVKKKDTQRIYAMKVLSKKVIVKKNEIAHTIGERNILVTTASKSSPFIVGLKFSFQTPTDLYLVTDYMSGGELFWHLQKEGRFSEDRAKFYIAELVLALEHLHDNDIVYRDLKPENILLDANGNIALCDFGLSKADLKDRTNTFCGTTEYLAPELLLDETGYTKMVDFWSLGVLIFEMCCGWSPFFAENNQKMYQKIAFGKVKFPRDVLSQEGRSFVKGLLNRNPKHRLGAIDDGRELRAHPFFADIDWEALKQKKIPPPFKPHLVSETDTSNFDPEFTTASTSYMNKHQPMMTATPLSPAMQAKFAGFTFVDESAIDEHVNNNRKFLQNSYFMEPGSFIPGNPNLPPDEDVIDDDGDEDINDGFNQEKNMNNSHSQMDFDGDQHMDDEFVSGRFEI
The assay is described as follows: pull-down; GST-tagged protein from E. coli on glutathione sepharose beads, mixed with pre-cleared lysate of 24 h nitrogen-starved yeast with HA-Gap1, 2 h in the cold room, washed 3 times with PBS-T; Western blot with anti-HA-peroxidase; only the target purified.

Numbering of substitutions follows the chain as printed. In names and notes the source's numbering stands. Results are given in words; binding and its absence hold for the method and conditions named. For some of these results: Binding seen in cells or lysates may run through a third protein. Some binding calls cover weakened binding; strength is not graded here. Where a sequence is shown, tags or fusion partners need not be part of it.

B1: GST-tagged Sch9 (GST-Sch9) (enzyme, S. cerevisiae, UniProt P11792 1-824, looked up)
chain: T10 sequence
notes: Sch9 protein kinase of yeast, expressed from pGEX-Sch9 (pGEX-4T-1-Sch9); Plasmid from J. Bergsma; also called GST-Sch9p; source: purified from E. coli (peptide microarrays); not shown: GST, N-terminal, kept
On to B1, for which the binding entry in assay [1] is listed as “binds”; in assay [2] it was “binds”; in assay [3] it was “no binding (tested: 100 or 500 µg/ml GST-Sch9)”; in [4] it was “binds”; in assay [5], “binds”; in assay [6], “no binding (tested: 100 or 500 µg/ml GST-Sch9)”. The binding result in [7] was “binds”; in assay [8], “binds”; in [9], “no binding (tested: 100 or 500 µg/ml GST-Sch9)”; in assay [10] it was “binds”.

B2: HA-tagged Gap1^F233D (protein, UniProt P19145 1-602)
chain: MSNTSSYEKNNPDNLKHNGITIDSEFLTQEPITIPSNGSAVSIDETGSGSKWQDFKDSFKRVKPIEVDPNLSEAEKVAIITAQTPLKHHLKNRHLQMIAIGGAIGTGLLVGSGTALRTGGPASLLIGWGSTGTMIYAMVMALGELAVIFPISGGFTTYATRFIDESFGYANNFNYMLQWLVVLPLEIVSASITVNFWGTDPKYRDGFVALFWLAIVIINMFGVKGYGEAEFVDSFIKVITVVGFIILGIILNCGGGPTGGYIGGKYWHDPGAFAGDTPGAKFKGVCSVFVTAAFSFAGSELVGLAASESVEPRKSVPKAAKQVFWRITLFYILSLLMIGLLVPYNDKSLIGASSVDAAASPFVIAIKTHGIKGLPSVVNVVILIAVLSVGNSAIYACSRTMVALAEQRFLPEIFSYVDRKGRPLVGIAVTSAFGLIAFVAASKKEGEVFNWLLALSGLSSLFTWGGICICHIRFRKALAAQGRGLDELSFKSPTGVWGSYWGLFMVIIMFIAQFYVAVFPVGDSPSAEGFFEAYLSFPLVMVMYIGHKIYKRNWKLFIPAEKMDIDTGRREVDLDLLKQEIAEEKAIMATKPRWYRIWNFWC
Consider B2, for which the binding result in assay [11] was “binds”.

B3: HA-tagged Gap1^FVF-DKD (protein, UniProt P19145 1-602)
chain: B2 chain with F231D, V232K
On to B3, for which the binding entry in assay [11] is on record as “binds”.

B4: HA-tagged Gap1^V232K (protein, UniProt P19145 1-602)
chain: B2 chain with V232K, D233F
Take B4: the binding result in assay [11] is given as “binds”.

B5: HA-tagged wild type Gap1 (HA-Gap1) (protein, UniProt P19145 1-602)
chain: B2 chain with D233F
With B5, the binding entry in assay [11] is “binds”.

B6: HA-tagged Gap1^S234E (protein, UniProt P19145 1-602)
chain: B2 chain with D233F, S234E
Regarding B6, in assay [11], the binding result is “binds”.

B7: HA-tagged Gap1^F231D (protein, UniProt P19145 1-602)
chain: B2 chain with F231D, D233F
Regarding B7, the binding result in assay [11] is on record as “binds”.
